According to doi:10.1101/393272:
Like-named read-outs stand apart in the source and are kept apart here. These are yes or no findings as the source states them, for the method shown. Binding calls can cover weak binding; strength is not graded here. For some assays here: Sequences can lack the tags named with a protein. For some assays here: Binding seen in cells or lysates may run through a third protein.

Protein sequences, listed by entry. Tags and fused reporters are not part of them. Lines headed by an entry give the natural chain unless they say otherwise; changes in a name come on top.
UniProt P55852: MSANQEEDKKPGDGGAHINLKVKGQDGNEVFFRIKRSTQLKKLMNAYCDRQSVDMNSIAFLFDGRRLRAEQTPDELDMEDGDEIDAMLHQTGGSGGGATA
UniProt O75925: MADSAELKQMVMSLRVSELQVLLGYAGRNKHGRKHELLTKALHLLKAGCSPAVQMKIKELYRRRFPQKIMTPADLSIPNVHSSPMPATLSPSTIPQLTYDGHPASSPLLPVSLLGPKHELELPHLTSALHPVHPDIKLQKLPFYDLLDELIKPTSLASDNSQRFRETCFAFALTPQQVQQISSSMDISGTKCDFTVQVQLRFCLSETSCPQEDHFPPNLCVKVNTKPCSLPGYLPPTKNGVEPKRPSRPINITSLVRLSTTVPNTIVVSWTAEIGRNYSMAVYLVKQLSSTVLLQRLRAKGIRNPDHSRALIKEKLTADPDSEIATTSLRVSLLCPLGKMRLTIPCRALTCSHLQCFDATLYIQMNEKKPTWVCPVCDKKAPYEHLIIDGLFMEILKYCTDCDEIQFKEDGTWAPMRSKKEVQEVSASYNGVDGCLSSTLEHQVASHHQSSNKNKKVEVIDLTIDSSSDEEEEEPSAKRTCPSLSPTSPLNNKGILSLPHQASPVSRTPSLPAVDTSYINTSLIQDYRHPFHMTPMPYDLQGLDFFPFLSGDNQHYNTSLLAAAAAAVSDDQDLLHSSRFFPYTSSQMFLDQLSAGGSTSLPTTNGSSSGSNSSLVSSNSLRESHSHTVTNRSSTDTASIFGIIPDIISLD

Key:
[1] = molecular target: SUMO1^ΔGG+SIM, GAL4 BD fusion (Arabidopsis thaliana) (UniProt P55852); test: two-hybrid
[2] = molecular target: SUMO1^ΔGG, GAL4 BD fusion (Arabidopsis thaliana) (UniProt P55852); test: two-hybrid
[3] = molecular target: SUMO1^ΔGG+SIM, GAL4 BD fusion (Arabidopsis thaliana) (UniProt P55852); test: two-hybrid; remark: listed apart in the source
[4] = molecular target: SUMO1^ΔGG, GAL4 BD fusion (Arabidopsis thaliana) (UniProt P55852); test: two-hybrid; remark: listed apart in the source
[5] = molecular target: SUMO1^GG, GAL4 BD fusion (Arabidopsis thaliana) (UniProt P55852); test: two-hybrid
[6] = molecular target: COP1^SUMO (K193R), GAL4 BD fusion (Arabidopsis thaliana); test: two-hybrid
[7] = molecular target: SCFP^C-SUMO1^GG (Arabidopsis thaliana) (UniProt P55852); test: split reporter
[8] = molecular target: SCFP^N-tagged SUMO1^ΔGG (Arabidopsis thaliana) (UniProt P55852); test: split reporter
[9] = molecular target: SCFP^N-tagged SUMO1^GG (Arabidopsis thaliana) (UniProt P55852); test: split reporter
[10] = molecular target: SCFP^N-tagged SUMO1^ΔGG+SIM (Arabidopsis thaliana) (UniProt P55852); test: split reporter
[11] = molecular target: SCFP^N-tagged SUMO1^GG+SIM (Arabidopsis thaliana) (UniProt P55852); test: split reporter
[12] = molecular target: SUMO1^GG, GAL4 BD fusion (Arabidopsis thaliana) (UniProt P55852); test: two-hybrid; remark: listed apart in the source
[13] = molecular target: SUMO1^K10R, BiFC fusion (Arabidopsis thaliana) (UniProt P55852); test: split reporter
[14] = molecular target: SUMO1^K9R+K10R, BiFC fusion (Arabidopsis thaliana) (UniProt P55852); test: split reporter
[15] = molecular target: SUMO1^K9R, BiFC fusion (Arabidopsis thaliana) (UniProt P55852); test: split reporter
[16] = molecular target: SCFP^C-SUMO1^GG (Arabidopsis thaliana) (UniProt P55852); test: split reporter; remark: listed apart in the source

In the case of “PIAS1, GAL4 AD fusion (from UniProt O75925 1-651)”, the binding [1] is reported as “binds” and the binding [2] is reported as “binds”.

B1: SIZ1 (SUMO E3 ligase), GAL4 AD fusion (enzyme, UniProt Q680Q4 1-884)
chain: MDLEANCKEKLSYFRIKELKDVLTQLGLSKQGKKQELVDRILTLLSDEQAARLLSKKNTVAKEAVAKLVDDTYRKMQVSGASDLASKGQVSSDTSNLKVKGEPEDPFQPEIKVRCVCGNSLETDSMIQCEDPRCHVWQHVGCVILPDKPMDGNPPLPESFYCEICRLTRADPFWVTVAHPLSPVRLTATTIPNDGASTMQSVERTFQITRADKDLLAKPEYDVQAWCMLLNDKVLFRMQWPQYADLQVNGVPVRAINRPGGQLLGVNGRDDGPIITSCIRDGVNRISLSGGDVRIFCFGVRLVKRRTLQQVLNLIPEEGKGETFEDALARVRRCIGGGGGDDNADSDSDIEVVADFFGVNLRCPMSGSRIKVAGRFLPCVHMGCFDLDVFVELNQRSRKWQCPICLKNYSVEHVIVDPYFNRITSKMKHCDEEVTEIEVKPDGSWRVKFKRESERRELGELSQWHAPDGSLCPSAVDIKRKMEMLPVKQEGYSDGPAPLKLGIRKNRNGIWEVSKPNTNGLSSSNRQEKVGYQEKNIIPMSSSATGSGRDGDDASVNQDAIGTFDFVANGMELDSISMNVDSGYNFPDRNQSGEGGNNEVIVLSDSDDENDLVITPGPAYSGCQTDGGLTFPLNPPGIINSYNEDPHSIAGGSSGLGLFNDDDEFDTPLWSFPSETPEAPGFQLFRSDADVSGGLVGLHHHSPLNCSPEINGGYTMAPETSMASVPVVPGSTGRSEANDGLVDNPLAFGRDDPSLQIFLPTKPDASAQSGFKNQADMSNGLRSEDWISLRLGDSASGNHGDPATTNGINSSHQMSTREGSMDTTTETASLLLGMNDSRQDKAKKQRSDNPFSFPRQKRSNNEQDHQTRHRSLNKICIILCAGKN
For B1, the binding [3] was “binds”, the binding [4] was “binds” and the binding [5] was “binds”. The binding [6] was “binds”.

B2: SIZ1 fused to Venus^N (enzyme, UniProt Q680Q4 1-884)
chain: MDLEANCKEKLSYFRIKELKDVLTQLGLSKQGKKQELVDRILTLLSDEQAARLLSKKNTVAKEAVAKLVDDTYRKMQVSGASDLASKGQVSSDTSNLKVKGEPEDPFQPEIKVRCVCGNSLETDSMIQCEDPRCHVWQHVGCVILPDKPMDGNPPLPESFYCEICRLTRADPFWVTVAHPLSPVRLTATTIPNDGASTMQSVERTFQITRADKDLLAKPEYDVQAWCMLLNDKVLFRMQWPQYADLQVNGVPVRAINRPGGQLLGVNGRDDGPIITSCIRDGVNRISLSGGDVRIFCFGVRLVKRRTLQQVLNLIPEEGKGETFEDALARVRRCIGGGGGDDNADSDSDIEVVADFFGVNLRCPMSGSRIKVAGRFLPCVHMGCFDLDVFVELNQRSRKWQCPICLKNYSVEHVIVDPYFNRITSKMKHCDEEVTEIEVKPDGSWRVKFKRESERRELGELSQWHAPDGSLCPSAVDIKRKMEMLPVKQEGYSDGPAPLKLGIRKNRNGIWEVSKPNTNGLSSSNRQEKVGYQEKNIIPMSSSATGSGRDGDDASVNQDAIGTFDFVANGMELDSISMNVDSGYNFPDRNQSGEGGNNEVIVLSDSDDENDLVITPGPAYSGCQTDGGLTFPLNPPGIINSYNEDPHSIAGGSSGLGLFNDDDEFDTPLWSFPSETPEAPGFQLFRSDADVSGGLVGLHHHSPLNCSPEINGGYTMAPETSMASVPVVPGSTGRSEANDGLVDNPLAFGRDDPSLQIFLPTKPDASAQSGFKNQADMSNGLRSEDWISLRLGDSASGNHGDPATTNGINSSHQMSTREGSMDTTTETASLLLGMNDSRQDKAKKQRSDNPFSFPRQKRSNNEQDHQTRHRSLNKICIILCAGKN
In the case of B2, the binding [7] is reported as “binds”.

B3: SCFP^C-tagged SIZ1 (enzyme, UniProt Q680Q4 1-884)
chain: MDLEANCKEKLSYFRIKELKDVLTQLGLSKQGKKQELVDRILTLLSDEQAARLLSKKNTVAKEAVAKLVDDTYRKMQVSGASDLASKGQVSSDTSNLKVKGEPEDPFQPEIKVRCVCGNSLETDSMIQCEDPRCHVWQHVGCVILPDKPMDGNPPLPESFYCEICRLTRADPFWVTVAHPLSPVRLTATTIPNDGASTMQSVERTFQITRADKDLLAKPEYDVQAWCMLLNDKVLFRMQWPQYADLQVNGVPVRAINRPGGQLLGVNGRDDGPIITSCIRDGVNRISLSGGDVRIFCFGVRLVKRRTLQQVLNLIPEEGKGETFEDALARVRRCIGGGGGDDNADSDSDIEVVADFFGVNLRCPMSGSRIKVAGRFLPCVHMGCFDLDVFVELNQRSRKWQCPICLKNYSVEHVIVDPYFNRITSKMKHCDEEVTEIEVKPDGSWRVKFKRESERRELGELSQWHAPDGSLCPSAVDIKRKMEMLPVKQEGYSDGPAPLKLGIRKNRNGIWEVSKPNTNGLSSSNRQEKVGYQEKNIIPMSSSATGSGRDGDDASVNQDAIGTFDFVANGMELDSISMNVDSGYNFPDRNQSGEGGNNEVIVLSDSDDENDLVITPGPAYSGCQTDGGLTFPLNPPGIINSYNEDPHSIAGGSSGLGLFNDDDEFDTPLWSFPSETPEAPGFQLFRSDADVSGGLVGLHHHSPLNCSPEINGGYTMAPETSMASVPVVPGSTGRSEANDGLVDNPLAFGRDDPSLQIFLPTKPDASAQSGFKNQADMSNGLRSEDWISLRLGDSASGNHGDPATTNGINSSHQMSTREGSMDTTTETASLLLGMNDSRQDKAKKQRSDNPFSFPRQKRSNNEQDHQTRHRSLNKICIILCAGKN
With B3 the binding [8] was “binds”, the binding [9] was “binds” and the binding [10] was “binds”. For the same molecule, the binding [11] was “binds”.

B4: SCE1 (SUMO E2 CONJUGATING ENZYME), GAL4 AD fusion (enzyme, UniProt Q42551 1-160)
chain: MASGIARGRLAEERKSWRKNHPHGFVAKPETGQDGTVNLMVWHCTIPGKAGTDWEGGFFPLTMHFSEDYPSKPPKCKFPQGFFHPNVYPSGTVCLSILNEDYGWRPAITVKQILVGIQDLLDTPNPADPAQTDGYHLFCQDPVEYKKRVKLQSKQYPALV
With B4 the binding [4] was “binds”, the binding [5] was “binds” and the binding [12] was “binds weakly”.

B5: SCFP^C-tagged SCE1 (enzyme, UniProt Q42551 1-160)
chain: MASGIARGRLAEERKSWRKNHPHGFVAKPETGQDGTVNLMVWHCTIPGKAGTDWEGGFFPLTMHFSEDYPSKPPKCKFPQGFFHPNVYPSGTVCLSILNEDYGWRPAITVKQILVGIQDLLDTPNPADPAQTDGYHLFCQDPVEYKKRVKLQSKQYPALV
B5 was tested, and the binding [8] was “binds”, the binding [13] was “binds” and the binding [9] was “binds”. For the same molecule, the binding [14] was “binds”, the binding [10] was “binds” and the binding [15] was “binds”. The binding [11] was “binds”.

B6: SCFP^N-SCE1 (enzyme, UniProt Q42551 1-160)
chain: MASGIARGRLAEERKSWRKNHPHGFVAKPETGQDGTVNLMVWHCTIPGKAGTDWEGGFFPLTMHFSEDYPSKPPKCKFPQGFFHPNVYPSGTVCLSILNEDYGWRPAITVKQILVGIQDLLDTPNPADPAQTDGYHLFCQDPVEYKKRVKLQSKQYPALV
B6 was tested, and the binding [7] was “binds” and the binding [16] was “binds”.
